Measurements reported in PubChem BioAssay AID1224826 (NIAID, 2016)
Assay: 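Genes that change LPS-induced Tnf promoter activity in mouse macrophages when knocked down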 (primary screen). Cells: RAW264.7 G9 macrophages from mouse bearing reporters for p65 (GFP) and the Tnf promoter (mCherry). Knock-down reagent: siRNA pool against mouse genes, 100 nM. Duration: 16 h of LPS stimulation, after 2 days of siRNA transfection. Conditions: bacterial lipopolysaccharide (Salmonella minnesota R595), 10 ng/ml. Detection: 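Imaged Tnf reporter mCherry in nuclei, minus background, normalised per plate to the median and expressed as robust z-scores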. Scale: Tnf reporter robust z-score: higher = stronger Tnf promoter reporter signal after LPS. Hit rule: 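Called active when robust z-score is at most -1.3, matching the median of the Tlr4 knock-down control, or over 3; control wells and wells with under 50 cells never active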. Calls: active = Tnf reporter clearly lowered or raised; inactive = no clear change in Tnf reporter.
The whole screen tested about 17,000 reagents; this is a random part of them. In the full data, about 1,110 (6.6%) were called active. 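Active means lowered or raised reporter signal; replicate intensities are raw and not normalised per plate.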 Not all columns of the deposit are shown.

Or8h7 | Tnf reporter robust z-score: -0.08; fewer than 50 cells in well: enough cells in well; Outcome: inactive
Usp8 | Tnf reporter robust z-score: 2.02; fewer than 50 cells in well: enough cells in well; Outcome: inactive
Serpinb9d | Tnf reporter robust z-score: -0.71; fewer than 50 cells in well: enough cells in well; Outcome: inactive
Bnip3 | Tnf reporter robust z-score: -1; fewer than 50 cells in well: enough cells in well; Outcome: inactive
Snip1 | Tnf reporter robust z-score: -0.32; fewer than 50 cells in well: enough cells in well; Outcome: inactive
Ccdc7b | fewer than 50 cells in well: fewer than 50 cells per well; well left out of calls; Outcome: inactive

Looked up above.
Value of Bnip3 under “Tnf reporter robust z-score”: -1
Usp8, fewer than 50 cells in well → enough cells in well

Next results follow.
Uhrf2 | Tnf reporter robust z-score: -0.6; fewer than 50 cells in well: enough cells in well; Outcome: inactive
Cers2 | Tnf reporter robust z-score: 0.23; fewer than 50 cells in well: enough cells in well; Outcome: inactive
Akap7 | Tnf reporter robust z-score: 0.13; fewer than 50 cells in well: enough cells in well; Outcome: inactive
Btc | Tnf reporter robust z-score: -0.45; fewer than 50 cells in well: enough cells in well; Outcome: inactive
Rnf25 | Tnf reporter robust z-score: 0.47; fewer than 50 cells in well: enough cells in well; Outcome: inactive
Elp2 | Tnf reporter robust z-score: 0.11; fewer than 50 cells in well: enough cells in well; Outcome: inactive
